According to paper PMC11176741:
No constants are given. Whether binding was seen depends on the method and setting. In cells and extracts the contact can be indirect. Some binding calls cover weakened binding; strength is not graded here.

Sequences of proteins named here, by UniProt entry; tags and fusion partners are left off.
UniProt Q9Y297: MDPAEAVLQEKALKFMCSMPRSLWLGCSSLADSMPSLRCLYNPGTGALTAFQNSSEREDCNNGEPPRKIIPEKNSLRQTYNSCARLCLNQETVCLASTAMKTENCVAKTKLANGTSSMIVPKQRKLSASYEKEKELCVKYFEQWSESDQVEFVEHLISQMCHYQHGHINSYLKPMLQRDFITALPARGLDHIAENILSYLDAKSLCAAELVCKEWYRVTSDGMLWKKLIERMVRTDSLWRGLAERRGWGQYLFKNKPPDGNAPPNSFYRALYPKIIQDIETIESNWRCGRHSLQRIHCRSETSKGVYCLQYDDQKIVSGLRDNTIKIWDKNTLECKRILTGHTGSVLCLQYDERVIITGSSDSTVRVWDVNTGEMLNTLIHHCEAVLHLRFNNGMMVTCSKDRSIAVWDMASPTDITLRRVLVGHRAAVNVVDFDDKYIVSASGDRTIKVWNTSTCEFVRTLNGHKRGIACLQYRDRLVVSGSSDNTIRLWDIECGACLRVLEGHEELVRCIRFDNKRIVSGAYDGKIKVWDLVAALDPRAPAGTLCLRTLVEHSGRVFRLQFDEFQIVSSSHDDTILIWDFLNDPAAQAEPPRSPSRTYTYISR
UniProt Q96DH6: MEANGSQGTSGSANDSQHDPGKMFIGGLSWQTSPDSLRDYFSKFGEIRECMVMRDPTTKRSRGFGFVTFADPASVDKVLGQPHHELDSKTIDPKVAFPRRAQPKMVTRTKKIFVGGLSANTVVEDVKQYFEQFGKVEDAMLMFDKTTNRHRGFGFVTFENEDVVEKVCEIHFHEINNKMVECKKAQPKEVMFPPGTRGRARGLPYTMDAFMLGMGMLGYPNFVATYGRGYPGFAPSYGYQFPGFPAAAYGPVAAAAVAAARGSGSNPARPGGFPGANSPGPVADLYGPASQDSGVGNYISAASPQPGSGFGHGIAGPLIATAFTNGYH

Molecular target: β-transducin repeat containing protein (BTRC) E3 ubiquitin ligase, HA-tagged (UniProt Q9Y297)
Assay: co-IP; IP with anti-HA antibody from KYSE150 cells transfected with HA-BTRC and Flag-MSI2, without circMALAT1 overexpression; MG132 (10 µM) for 12 h before harvesting; 1% NP-40 lysis buffer, 4°C, Protein A/G agarose beads; immunoblot

For “Musashi RNA Binding Protein 2 (MSI2), Flag-tagged (from UniProt Q96DH6 1-328)”, which binding is on record?
Its binding is “binds”.
